# The supplement of paper PMC6411743
# Protein sequences, listed by entry. Tags and fused reporters are not part of them. Lines headed by an entry give the natural chain unless they say otherwise; changes in a name come on top.
# UniProt Q86XL3: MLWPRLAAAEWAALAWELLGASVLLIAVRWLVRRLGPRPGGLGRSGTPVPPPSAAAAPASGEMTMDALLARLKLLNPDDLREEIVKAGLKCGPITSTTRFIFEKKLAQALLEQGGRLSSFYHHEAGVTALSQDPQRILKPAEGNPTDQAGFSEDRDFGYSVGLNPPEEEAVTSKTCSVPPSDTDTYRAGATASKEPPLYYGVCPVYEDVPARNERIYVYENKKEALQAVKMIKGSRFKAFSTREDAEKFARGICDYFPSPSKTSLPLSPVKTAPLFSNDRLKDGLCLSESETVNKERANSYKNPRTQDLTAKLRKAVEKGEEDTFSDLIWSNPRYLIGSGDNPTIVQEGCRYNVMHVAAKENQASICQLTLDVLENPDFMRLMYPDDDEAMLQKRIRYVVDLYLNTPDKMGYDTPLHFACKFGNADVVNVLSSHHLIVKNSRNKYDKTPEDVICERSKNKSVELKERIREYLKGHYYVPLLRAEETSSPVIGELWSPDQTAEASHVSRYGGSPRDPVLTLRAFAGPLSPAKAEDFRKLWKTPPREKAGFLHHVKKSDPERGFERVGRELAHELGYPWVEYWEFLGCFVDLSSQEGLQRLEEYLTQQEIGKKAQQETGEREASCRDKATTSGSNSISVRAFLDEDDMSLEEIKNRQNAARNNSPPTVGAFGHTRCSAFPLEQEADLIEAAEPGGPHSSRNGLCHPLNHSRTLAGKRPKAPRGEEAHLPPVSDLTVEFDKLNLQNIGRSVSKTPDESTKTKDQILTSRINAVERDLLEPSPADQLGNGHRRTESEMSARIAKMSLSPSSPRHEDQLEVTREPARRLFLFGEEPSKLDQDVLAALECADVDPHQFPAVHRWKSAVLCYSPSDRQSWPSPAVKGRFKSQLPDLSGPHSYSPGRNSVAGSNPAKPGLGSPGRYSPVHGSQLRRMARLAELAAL
# UniProt Q86WR0: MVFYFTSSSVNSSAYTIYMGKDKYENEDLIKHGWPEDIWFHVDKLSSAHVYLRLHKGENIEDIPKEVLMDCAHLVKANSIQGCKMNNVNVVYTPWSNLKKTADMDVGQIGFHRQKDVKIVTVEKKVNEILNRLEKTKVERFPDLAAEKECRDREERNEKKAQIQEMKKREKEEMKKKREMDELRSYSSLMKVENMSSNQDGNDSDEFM
# UniProt Q86W92: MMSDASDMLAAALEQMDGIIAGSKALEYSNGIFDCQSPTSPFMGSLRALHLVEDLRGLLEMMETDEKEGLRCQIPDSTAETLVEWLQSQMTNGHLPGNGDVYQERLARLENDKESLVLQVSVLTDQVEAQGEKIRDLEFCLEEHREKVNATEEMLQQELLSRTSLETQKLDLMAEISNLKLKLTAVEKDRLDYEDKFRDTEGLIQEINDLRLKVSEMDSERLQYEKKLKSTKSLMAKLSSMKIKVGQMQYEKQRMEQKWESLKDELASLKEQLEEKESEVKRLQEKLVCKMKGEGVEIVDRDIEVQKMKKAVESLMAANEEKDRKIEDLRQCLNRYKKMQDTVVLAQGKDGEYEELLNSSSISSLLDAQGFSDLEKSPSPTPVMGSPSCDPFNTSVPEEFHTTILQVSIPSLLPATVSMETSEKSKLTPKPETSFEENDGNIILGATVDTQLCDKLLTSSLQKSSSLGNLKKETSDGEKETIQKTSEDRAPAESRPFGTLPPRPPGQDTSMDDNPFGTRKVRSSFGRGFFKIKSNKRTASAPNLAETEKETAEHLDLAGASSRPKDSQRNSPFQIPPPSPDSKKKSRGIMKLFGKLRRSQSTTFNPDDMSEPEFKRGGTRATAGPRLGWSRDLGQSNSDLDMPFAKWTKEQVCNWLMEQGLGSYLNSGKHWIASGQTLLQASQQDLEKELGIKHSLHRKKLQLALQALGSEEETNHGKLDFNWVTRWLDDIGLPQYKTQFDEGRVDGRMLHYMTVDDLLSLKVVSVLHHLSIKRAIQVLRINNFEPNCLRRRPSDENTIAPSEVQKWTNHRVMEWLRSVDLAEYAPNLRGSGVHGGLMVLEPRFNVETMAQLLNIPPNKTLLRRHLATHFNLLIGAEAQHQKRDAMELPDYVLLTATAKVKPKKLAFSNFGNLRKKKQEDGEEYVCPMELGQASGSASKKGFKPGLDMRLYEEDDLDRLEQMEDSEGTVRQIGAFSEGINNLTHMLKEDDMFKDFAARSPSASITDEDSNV
# UniProt Q8IWV8: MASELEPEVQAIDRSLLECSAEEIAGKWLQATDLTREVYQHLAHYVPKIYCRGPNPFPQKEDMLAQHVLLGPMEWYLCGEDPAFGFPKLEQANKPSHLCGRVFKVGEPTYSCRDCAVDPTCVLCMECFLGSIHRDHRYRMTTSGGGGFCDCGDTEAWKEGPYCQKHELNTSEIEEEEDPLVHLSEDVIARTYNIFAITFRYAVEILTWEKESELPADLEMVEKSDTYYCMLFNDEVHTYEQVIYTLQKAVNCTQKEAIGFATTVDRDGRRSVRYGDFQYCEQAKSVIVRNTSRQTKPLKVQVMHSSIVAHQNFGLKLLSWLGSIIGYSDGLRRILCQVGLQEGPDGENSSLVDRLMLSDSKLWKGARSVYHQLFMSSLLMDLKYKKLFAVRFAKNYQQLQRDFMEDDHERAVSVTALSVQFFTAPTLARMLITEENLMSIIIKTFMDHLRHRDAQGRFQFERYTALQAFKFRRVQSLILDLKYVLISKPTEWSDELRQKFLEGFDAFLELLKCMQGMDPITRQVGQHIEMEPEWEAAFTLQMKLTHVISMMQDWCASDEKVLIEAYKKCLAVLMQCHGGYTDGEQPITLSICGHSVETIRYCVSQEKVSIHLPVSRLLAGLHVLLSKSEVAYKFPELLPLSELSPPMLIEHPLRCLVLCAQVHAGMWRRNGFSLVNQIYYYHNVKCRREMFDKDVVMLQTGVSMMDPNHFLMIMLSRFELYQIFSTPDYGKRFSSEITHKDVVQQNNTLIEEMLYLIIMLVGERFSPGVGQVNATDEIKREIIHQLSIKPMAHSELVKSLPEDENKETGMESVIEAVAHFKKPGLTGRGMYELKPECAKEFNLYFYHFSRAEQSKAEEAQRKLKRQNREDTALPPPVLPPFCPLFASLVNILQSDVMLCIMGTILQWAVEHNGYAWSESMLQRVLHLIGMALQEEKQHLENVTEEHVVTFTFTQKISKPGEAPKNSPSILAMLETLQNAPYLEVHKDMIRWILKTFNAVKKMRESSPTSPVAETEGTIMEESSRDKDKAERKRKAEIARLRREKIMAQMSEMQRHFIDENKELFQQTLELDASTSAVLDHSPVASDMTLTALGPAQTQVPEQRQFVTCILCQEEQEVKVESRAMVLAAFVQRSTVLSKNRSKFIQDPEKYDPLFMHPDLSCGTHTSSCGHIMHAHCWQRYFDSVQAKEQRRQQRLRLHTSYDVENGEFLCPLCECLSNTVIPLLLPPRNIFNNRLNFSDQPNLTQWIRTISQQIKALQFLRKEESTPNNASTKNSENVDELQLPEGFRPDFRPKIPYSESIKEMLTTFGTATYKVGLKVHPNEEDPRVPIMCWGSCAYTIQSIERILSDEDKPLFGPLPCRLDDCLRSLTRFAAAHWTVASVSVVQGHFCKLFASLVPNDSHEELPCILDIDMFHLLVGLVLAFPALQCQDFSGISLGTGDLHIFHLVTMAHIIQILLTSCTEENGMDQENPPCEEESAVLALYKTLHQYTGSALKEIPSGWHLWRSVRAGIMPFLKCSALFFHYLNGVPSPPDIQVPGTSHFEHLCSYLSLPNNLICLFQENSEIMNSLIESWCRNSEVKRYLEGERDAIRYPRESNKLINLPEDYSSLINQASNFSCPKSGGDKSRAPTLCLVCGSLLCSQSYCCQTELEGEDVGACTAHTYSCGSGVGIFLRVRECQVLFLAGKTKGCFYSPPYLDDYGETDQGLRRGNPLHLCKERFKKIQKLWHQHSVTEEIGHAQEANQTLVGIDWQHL
# UniProt Q8N5K1: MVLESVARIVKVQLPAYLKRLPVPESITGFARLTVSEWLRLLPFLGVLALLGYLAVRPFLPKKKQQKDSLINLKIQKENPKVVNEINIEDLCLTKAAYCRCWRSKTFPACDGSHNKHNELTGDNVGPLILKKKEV
# UniProt Q86UE8, whole entry, looked up: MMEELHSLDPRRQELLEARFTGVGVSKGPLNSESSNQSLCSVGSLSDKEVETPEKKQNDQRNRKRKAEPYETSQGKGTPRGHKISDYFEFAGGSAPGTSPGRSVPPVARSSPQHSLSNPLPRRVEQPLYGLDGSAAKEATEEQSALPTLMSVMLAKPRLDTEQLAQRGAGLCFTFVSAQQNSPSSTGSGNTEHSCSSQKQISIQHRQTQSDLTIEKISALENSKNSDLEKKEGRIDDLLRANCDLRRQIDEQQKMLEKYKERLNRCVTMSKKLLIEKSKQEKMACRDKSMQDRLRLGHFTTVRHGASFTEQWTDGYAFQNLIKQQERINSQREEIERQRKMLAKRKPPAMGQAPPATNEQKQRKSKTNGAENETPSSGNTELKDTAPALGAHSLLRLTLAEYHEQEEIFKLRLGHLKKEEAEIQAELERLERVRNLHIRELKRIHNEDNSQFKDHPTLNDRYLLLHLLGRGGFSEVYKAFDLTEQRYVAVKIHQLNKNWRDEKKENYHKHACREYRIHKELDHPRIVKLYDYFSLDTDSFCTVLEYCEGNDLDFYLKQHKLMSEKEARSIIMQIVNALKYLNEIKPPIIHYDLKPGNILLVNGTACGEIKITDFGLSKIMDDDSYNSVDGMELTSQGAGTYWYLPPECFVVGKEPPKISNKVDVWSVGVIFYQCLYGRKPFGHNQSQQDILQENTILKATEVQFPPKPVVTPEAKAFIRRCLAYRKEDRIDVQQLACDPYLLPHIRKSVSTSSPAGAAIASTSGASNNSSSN
# UniProt Q8IUR0, whole entry: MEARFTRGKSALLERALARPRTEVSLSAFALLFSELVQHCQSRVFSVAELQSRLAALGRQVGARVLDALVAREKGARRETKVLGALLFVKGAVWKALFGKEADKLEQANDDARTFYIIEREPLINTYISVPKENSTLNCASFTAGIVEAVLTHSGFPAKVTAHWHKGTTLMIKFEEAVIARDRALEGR
# UniProt Q8NAV1: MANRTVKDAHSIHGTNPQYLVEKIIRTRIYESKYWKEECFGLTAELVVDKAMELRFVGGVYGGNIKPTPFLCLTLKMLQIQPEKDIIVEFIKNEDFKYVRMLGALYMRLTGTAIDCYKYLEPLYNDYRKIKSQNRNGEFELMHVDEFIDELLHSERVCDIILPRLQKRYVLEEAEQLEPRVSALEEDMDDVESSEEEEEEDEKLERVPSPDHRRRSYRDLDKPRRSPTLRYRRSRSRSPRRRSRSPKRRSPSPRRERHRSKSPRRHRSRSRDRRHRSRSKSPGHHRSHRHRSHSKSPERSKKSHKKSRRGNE
# UniProt Q8IXS8: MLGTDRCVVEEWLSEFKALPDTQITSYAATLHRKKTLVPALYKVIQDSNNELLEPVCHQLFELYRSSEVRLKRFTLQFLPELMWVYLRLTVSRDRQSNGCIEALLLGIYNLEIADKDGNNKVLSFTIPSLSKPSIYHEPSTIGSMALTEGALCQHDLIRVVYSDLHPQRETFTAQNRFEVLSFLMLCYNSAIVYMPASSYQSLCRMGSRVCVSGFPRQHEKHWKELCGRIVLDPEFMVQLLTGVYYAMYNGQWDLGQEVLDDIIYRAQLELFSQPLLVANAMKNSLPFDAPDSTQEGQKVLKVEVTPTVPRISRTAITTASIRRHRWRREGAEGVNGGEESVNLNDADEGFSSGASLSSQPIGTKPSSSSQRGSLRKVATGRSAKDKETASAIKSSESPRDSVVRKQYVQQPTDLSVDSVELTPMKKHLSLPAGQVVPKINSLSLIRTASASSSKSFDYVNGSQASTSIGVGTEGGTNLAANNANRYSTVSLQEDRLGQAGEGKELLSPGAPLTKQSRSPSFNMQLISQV
# UniProt Q8N1B4: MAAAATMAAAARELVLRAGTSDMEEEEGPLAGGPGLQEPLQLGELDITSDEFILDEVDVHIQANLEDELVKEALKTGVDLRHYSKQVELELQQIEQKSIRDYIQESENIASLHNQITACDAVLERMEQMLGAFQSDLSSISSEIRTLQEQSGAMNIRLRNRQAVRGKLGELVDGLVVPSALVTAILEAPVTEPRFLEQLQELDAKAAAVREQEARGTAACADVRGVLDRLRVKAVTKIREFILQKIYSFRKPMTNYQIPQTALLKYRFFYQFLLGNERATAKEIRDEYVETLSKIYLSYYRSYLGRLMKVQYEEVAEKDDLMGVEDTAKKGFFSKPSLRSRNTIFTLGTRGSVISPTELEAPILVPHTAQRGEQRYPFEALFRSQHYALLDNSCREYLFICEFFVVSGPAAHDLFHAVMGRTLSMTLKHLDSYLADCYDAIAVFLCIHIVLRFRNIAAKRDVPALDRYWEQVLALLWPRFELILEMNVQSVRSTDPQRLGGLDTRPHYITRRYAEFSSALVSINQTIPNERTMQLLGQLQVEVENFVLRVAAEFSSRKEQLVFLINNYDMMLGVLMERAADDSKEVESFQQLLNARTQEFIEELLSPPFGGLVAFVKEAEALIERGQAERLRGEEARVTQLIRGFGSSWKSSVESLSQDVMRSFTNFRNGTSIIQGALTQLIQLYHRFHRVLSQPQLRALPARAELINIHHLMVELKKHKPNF
# ± gives the standard deviation of the averaged measurements. Only a part is listed here, and it is no random draw. Most entries show no effect beyond the scatter of the controls.
# Compound: Nc1ncnc2c1ncn2[C@@H]1O[C@H](COP(=O)(O)OP(=O)(O)NP(=O)(O)O)[C@@H](O)[C@H]1O [adenylyl imidodiphosphate]
# Assay: NP40-soluble protein abundance relative to vehicle (solubility fold change) (ratio); higher = more soluble protein in presence of AMP-PNP
# Conditions: concentration: 0.5mM
# In short: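 Values are fold changes against the detergent-processed vehicle, based on vsn-normalised intensities. Jurkat crude lysate was treated at eight concentrations from 0.1 to 10 mM (10 min at room temperature, then 3 min at 37 °C), solubilised with 0.8% NP40 and benzonase, ultracentrifuged and analysed by TMT-labelled LC-MS/MS over three independent experiments.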
row,Target,NP40-soluble protein abundance
1,UniProt Q86XL3 and related entries,0.9699 ± 0.0068
2,ZCCHC9 (UniProt Q8N567),1.02 ± 0.011
3,CCDC25 (UniProt Q86WR0),1.02 ± 0.027
4,Q8N655 (UniProt Q96JN0),1.05 ± 0.037
5,UniProt Q86W92 and related entries,1.03 ± 0.017
6,C9orf40 (UniProt Q8IXQ3),1 ± 0.049
7,UniProt Q8IWV8 and related entries,0.981 ± 0.06
8,UniProt Q8IVS2,1.02 ± 0.063
9,HSCB (UniProt Q8IWL3),1.01 ± 0.018
10,GPAT4 (UniProt Q86UL3),1 ± 0.037
11,EXOC8 (UniProt Q8IYI6),1 ± 0.034
12,C1orf52 (UniProt Q8N6N3),0.948 ± 0.024
13,UniProt Q8IXW5 and related entries,1.02 ± 0.044
14,CISD2 (UniProt Q8N5K1),0.991 ± 0.027
15,UniProt Q86UE8-2|Q86UE8-3|J3QLK5,1.01 ± 0.026
16,DCUN1D3 (UniProt Q8IWE4),0.972 ± 0.036
17,UniProt Q8IV53 and related entries,0.998 ± 0.027
18,UniProt Q8N4C8 and related entries,1.01 ± 0.036
19,RABEPK (UniProt Q7Z6M1),0.979 ± 0.017

# Given as tab-separated lines: entries from further up.
row	Target	NP40-soluble protein abundance
15	UniProt Q86UE8-2|Q86UE8-3|J3QLK5	1.01 ± 0.026
16	DCUN1D3 (UniProt Q8IWE4)	0.972 ± 0.036

# Additional results follow:

row,Target,NP40-soluble protein abundance
1,UniProt Q86TI2 and related entries,0.965 ± 0.071
2,UniProt Q8N9N2-2|E9PKM6 and related entries,0.996 ± 0.021
3,UniProt Q7Z7A4 and related entries,0.982 ± 0.043
4,UniProt Q86UY8 and related entries,1.01 ± 0.029
5,TRAPPC5 (UniProt Q8IUR0),1.034 ± 0.0059
6,PRPF38A (UniProt Q8NAV1),1 ± 0.013
7,UniProt Q8N7H5 and related entries,1.01 ± 0.037
8,SLC15A4 (UniProt Q8N697),0.967 ± 0.021
9,UniProt Q86YP4-2|Q86YP4-3|Q86YP4,1.02 ± 0.053
10,FAM126B (UniProt Q8IXS8),0.98 ± 0.029
11,UniProt Q8IXQ5 and related entries,0.993 ± 0.012
12,UniProt Q8IZE3-2|X6RHX1,1 ± 0.046
13,UniProt Q8N122 and related entries,0.988 ± 0.021
14,PALB2 (UniProt Q86YC2),0.9895 ± 0.0027
15,UniProt Q86UT6 and related entries,1.06 ± 0.042
16,VPS52 (UniProt Q8N1B4),0.964 ± 0.053
17,MRPL41 (UniProt Q8IXM3),1.01 ± 0.02
18,TXNDC5 (UniProt Q8NBS9),0.995 ± 0.048
